From the supplement of paper PMC6411743
± gives the standard deviation of the averaged measurements. This is a selection; strong and weak results do not stand in their true shares.

Protein sequences, listed by entry. Tags and fused reporters are not part of them. Lines headed by an entry give the natural chain unless they say otherwise; changes in a name come on top.
UniProt P78344: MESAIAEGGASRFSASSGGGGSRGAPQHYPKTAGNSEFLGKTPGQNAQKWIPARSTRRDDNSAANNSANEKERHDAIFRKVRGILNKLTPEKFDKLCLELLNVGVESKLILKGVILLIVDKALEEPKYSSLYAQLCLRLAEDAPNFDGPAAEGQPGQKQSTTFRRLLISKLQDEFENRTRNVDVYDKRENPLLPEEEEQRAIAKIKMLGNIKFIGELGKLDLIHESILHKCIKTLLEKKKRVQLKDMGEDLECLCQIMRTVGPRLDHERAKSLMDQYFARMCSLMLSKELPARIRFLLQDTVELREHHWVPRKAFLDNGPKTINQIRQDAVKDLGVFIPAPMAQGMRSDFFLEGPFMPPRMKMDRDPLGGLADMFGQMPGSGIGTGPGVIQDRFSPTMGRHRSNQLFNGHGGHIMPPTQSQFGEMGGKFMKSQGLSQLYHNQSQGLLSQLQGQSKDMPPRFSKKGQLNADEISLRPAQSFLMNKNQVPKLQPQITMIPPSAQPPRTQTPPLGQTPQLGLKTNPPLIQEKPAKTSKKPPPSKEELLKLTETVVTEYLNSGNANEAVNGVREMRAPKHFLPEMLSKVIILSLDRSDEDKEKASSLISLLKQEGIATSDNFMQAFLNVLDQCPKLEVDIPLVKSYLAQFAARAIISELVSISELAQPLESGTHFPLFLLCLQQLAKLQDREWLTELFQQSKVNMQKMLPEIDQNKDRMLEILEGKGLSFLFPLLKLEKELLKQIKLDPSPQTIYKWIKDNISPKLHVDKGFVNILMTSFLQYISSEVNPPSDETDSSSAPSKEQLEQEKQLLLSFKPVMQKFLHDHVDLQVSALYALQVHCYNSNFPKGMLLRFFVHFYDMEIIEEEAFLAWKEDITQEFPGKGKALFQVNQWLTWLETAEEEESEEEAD
UniProt P61018: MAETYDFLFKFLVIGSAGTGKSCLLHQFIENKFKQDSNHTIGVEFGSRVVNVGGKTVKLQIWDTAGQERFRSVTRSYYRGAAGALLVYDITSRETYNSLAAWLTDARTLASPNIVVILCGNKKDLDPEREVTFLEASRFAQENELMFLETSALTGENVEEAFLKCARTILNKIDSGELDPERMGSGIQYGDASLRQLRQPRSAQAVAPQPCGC
UniProt Q00537: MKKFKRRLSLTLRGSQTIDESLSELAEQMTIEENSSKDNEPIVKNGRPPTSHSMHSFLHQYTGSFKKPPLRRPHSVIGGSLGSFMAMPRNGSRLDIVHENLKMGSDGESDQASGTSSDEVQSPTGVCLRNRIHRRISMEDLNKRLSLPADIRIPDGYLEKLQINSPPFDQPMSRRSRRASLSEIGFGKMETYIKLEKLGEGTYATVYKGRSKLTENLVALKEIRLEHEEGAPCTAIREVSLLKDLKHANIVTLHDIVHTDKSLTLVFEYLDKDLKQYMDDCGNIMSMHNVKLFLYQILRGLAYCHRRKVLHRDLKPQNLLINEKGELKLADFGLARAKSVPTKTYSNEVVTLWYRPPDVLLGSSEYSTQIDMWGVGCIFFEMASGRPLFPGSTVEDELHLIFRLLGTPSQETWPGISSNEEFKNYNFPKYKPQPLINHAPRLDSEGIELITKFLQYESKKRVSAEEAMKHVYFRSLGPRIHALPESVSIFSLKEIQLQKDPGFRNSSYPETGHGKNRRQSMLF
UniProt P53597: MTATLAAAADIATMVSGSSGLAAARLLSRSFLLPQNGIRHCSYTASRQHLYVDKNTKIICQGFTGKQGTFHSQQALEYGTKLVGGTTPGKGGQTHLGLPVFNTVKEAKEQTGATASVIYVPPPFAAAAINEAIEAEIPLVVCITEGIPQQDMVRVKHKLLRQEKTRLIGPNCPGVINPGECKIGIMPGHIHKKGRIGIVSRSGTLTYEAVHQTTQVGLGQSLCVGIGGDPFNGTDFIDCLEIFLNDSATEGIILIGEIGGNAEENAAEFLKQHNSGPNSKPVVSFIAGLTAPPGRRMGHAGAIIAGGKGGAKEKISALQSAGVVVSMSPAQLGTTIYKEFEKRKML
UniProt P56385: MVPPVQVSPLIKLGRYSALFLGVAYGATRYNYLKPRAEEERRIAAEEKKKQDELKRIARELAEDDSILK
UniProt P54277: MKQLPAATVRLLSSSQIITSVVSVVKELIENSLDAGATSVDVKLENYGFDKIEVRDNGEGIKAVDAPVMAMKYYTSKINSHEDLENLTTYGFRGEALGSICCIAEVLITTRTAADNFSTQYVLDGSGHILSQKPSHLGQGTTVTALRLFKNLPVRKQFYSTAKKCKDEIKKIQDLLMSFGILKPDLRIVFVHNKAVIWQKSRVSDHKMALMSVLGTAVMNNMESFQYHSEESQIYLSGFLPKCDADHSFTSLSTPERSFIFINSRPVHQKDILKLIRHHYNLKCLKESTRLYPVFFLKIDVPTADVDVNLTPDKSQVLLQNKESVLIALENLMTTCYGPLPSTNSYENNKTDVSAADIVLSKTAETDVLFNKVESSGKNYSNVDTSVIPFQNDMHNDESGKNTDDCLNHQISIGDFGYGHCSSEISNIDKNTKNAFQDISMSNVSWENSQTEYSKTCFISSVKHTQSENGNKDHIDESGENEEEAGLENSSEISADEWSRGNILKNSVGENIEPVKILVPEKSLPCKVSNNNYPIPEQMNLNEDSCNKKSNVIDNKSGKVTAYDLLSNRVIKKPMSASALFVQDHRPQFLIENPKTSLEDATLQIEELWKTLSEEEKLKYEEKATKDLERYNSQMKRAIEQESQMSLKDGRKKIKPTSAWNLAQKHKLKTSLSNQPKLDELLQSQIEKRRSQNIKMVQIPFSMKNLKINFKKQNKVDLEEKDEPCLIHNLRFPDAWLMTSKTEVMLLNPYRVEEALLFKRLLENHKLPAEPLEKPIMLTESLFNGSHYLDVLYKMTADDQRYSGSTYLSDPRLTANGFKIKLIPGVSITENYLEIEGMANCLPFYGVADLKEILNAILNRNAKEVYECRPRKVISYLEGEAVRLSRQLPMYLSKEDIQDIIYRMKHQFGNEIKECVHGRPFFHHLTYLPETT
UniProt P83876: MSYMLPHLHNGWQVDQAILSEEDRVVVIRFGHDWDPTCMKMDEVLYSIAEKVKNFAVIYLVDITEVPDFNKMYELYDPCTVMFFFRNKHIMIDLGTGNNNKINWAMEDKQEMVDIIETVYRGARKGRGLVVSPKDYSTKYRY
UniProt P61088: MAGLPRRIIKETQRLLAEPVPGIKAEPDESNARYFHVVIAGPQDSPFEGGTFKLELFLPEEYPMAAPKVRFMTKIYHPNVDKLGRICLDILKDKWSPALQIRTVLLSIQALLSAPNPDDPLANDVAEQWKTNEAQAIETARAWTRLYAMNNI
UniProt P61011: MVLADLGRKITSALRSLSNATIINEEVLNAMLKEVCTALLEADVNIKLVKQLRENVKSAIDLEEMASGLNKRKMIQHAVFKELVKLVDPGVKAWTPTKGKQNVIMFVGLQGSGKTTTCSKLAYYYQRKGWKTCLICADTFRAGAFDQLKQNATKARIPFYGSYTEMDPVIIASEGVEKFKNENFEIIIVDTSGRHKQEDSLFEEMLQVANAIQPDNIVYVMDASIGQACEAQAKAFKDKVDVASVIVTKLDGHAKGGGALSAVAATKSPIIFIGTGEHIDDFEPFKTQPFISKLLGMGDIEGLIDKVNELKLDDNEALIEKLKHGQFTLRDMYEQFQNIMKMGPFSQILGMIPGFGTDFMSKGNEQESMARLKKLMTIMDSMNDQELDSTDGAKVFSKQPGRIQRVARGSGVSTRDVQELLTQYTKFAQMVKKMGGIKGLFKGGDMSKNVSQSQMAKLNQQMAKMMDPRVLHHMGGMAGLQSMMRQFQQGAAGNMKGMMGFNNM
UniProt P53794: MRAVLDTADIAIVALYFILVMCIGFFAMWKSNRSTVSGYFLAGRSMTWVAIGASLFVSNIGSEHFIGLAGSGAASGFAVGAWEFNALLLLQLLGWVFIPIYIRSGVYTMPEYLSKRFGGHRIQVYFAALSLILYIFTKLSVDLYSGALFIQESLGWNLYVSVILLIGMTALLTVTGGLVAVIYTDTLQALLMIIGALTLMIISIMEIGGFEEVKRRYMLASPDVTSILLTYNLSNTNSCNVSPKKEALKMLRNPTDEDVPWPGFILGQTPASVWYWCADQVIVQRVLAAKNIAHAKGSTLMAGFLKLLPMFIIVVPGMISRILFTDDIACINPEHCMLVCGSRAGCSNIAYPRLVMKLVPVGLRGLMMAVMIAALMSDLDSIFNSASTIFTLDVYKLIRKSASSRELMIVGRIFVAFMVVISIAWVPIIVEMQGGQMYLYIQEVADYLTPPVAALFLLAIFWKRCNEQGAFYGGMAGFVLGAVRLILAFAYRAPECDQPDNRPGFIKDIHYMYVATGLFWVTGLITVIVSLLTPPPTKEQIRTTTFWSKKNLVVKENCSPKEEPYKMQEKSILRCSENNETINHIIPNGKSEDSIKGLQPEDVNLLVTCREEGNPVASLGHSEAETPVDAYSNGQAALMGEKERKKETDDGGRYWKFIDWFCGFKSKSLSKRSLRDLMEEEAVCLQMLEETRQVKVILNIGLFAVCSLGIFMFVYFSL
UniProt P62191: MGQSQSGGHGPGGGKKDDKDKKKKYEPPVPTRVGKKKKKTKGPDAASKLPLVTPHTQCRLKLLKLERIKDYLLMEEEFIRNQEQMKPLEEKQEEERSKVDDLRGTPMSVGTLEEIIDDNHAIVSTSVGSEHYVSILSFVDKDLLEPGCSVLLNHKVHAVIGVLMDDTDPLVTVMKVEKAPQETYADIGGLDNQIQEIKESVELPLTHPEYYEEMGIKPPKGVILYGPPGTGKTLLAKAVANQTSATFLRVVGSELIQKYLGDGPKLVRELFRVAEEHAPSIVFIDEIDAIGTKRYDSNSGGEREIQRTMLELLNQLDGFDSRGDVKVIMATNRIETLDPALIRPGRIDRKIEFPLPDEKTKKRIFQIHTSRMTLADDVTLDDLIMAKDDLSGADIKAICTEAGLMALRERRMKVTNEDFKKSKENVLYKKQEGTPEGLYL
UniProt P98170, whole entry: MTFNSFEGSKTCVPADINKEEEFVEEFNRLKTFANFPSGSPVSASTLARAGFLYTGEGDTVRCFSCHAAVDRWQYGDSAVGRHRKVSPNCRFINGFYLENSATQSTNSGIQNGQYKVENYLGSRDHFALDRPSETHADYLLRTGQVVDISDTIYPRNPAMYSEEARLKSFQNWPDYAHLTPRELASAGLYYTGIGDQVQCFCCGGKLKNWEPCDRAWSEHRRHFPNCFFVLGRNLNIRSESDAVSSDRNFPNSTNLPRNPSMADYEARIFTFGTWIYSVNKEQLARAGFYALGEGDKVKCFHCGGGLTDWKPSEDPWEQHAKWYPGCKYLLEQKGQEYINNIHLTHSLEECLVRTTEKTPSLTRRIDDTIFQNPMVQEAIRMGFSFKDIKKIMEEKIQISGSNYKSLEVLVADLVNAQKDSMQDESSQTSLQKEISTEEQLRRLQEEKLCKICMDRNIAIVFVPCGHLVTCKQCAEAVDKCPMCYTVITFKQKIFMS
UniProt P56524: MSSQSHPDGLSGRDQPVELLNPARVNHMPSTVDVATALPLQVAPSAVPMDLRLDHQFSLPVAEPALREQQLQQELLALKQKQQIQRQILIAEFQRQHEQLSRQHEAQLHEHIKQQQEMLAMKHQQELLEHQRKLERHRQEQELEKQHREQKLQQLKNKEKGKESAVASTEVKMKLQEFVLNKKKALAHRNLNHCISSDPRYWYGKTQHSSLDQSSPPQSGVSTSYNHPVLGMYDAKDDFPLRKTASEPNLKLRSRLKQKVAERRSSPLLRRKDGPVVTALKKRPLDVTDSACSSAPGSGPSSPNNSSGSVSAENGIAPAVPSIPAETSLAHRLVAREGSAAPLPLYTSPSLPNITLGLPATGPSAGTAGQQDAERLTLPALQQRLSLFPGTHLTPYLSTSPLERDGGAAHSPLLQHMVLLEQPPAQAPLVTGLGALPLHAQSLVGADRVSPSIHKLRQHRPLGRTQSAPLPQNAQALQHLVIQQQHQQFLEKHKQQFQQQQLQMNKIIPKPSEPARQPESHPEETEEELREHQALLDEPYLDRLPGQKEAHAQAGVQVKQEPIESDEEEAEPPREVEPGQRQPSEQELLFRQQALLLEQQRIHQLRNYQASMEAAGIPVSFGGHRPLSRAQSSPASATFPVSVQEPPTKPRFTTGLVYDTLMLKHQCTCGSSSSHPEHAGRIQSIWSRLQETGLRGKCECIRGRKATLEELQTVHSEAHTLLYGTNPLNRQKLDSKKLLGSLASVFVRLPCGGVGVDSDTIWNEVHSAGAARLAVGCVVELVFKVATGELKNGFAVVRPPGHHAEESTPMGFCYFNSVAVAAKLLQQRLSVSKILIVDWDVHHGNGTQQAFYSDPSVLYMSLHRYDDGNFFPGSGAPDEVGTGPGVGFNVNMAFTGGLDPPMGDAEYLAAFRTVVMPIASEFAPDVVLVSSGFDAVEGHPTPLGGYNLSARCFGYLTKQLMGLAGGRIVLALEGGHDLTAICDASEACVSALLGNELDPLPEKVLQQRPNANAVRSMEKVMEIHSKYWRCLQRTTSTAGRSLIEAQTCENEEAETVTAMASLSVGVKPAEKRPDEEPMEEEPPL

Compound: Nc1ncnc2c1ncn2[C@@H]1O[C@H](COP(=O)(O)OP(=O)(O)OP(=O)(O)O)[C@@H](O)[C@H]1O [adenosine triphosphate]
Test: NP40-soluble protein abundance relative to vehicle (solubility fold change) (ratio); higher = more soluble protein in presence of ATP
In short: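 Jurkat crude lysate (Dounce-homogenised) was treated with eight concentrations from 0.1 to 10 mM for 10 min at room temperature, then 3 min at 37 °C. It was solubilised with 0.8% NP40 and benzonase (60 min, 4 °C) and ultracentrifuged, and the supernatant was TMT-labelled for LC-MS/MS. Intensities were vsn-normalised, and the value is the fold change against the NP40-processed vehicle per replicate, from three independent experiments.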

Target	NP40-soluble protein abundance (concentration: 1mM)	NP40-soluble protein abundance (concentration: 2mM)	NP40-soluble protein abundance (concentration: 4mM)	NP40-soluble protein abundance (concentration: 6mM)	NP40-soluble protein abundance (concentration: 8mM)	NP40-soluble protein abundance (concentration: 10mM)
UniProt P61224 and related entries	0.939 ± 0.12	0.96 ± 0.055	0.936 ± 0.061	1.01 ± 0.042	0.921 ± 0.048	0.9357 ± 0.0039
UniProt P62277	0.891 ± 0.059	0.809 ± 0.11	0.783 ± 0.18	0.711 ± 0.13	0.719 ± 0.13	0.81 ± 0.15
GTF2B (UniProt Q00403)	0.964 ± 0.018	0.98 ± 0.021	0.99 ± 0.035	0.959 ± 0.051	1.006 ± 0.009	1.01 ± 0.029
UniProt P78344 and related entries	0.967 ± 0.022	1 ± 0.025	1.01 ± 0.044	1.05 ± 0.035	1.06 ± 0.011	1.11 ± 0.013
COPA (UniProt P53621)	1.01 ± 0.097	0.996 ± 0.083	0.981 ± 0.052	0.923 ± 0.071	1 ± 0.032	1 ± 0.049
RAB4B (UniProt P61018)	0.956 ± 0.053	0.946 ± 0.011	0.965 ± 0.028	0.904 ± 0.046	0.91 ± 0.029	0.968 ± 0.011
UniProt Q00537 and related entries	1.18 ± 0.024	1.26 ± 0.066	1.25 ± 0.044	1.29 ± 0.054	1.34 ± 0.16	1.36 ± 0.16
SUCLG1 (UniProt P53597)	0.971 ± 0.018	0.954 ± 0.018	0.901 ± 0.022	0.988 ± 0.033	0.9458 ± 0.0091	0.94 ± 0.02
UniProt P56385	0.948 ± 0.16	0.894 ± 0.072	0.863 ± 0.057	0.99 ± 0.13	0.8988 ± 0.0036	0.844 ± 0.077
UniProt P54277 and related entries	1.25 ± 0.027	1.27 ± 0.075	1.35 ± 0.058	1.32 ± 0.08	1.31 ± 0.049	1.28 ± 0.05
UniProt P57076	0.965 ± 0.036	0.977 ± 0.039	0.919 ± 0.05	0.95 ± 0.041	0.946 ± 0.051	0.913 ± 0.047
UniProt P61981	1.09 ± 0.32	0.8 ± 0.18	1.03 ± 0.2	0.797 ± 0.2	0.937 ± 0.058	0.721 ± 0.17
UniProt P83876	1.13 ± 0.1	1.15 ± 0.071	1.15 ± 0.091	1.15 ± 0.072	1.22 ± 0.12	1.22 ± 0.058
UniProt P61088	0.983 ± 0.041	0.968 ± 0.031	0.956 ± 0.022	0.918 ± 0.07	0.956 ± 0.027	0.9 ± 0.068
NOP14 (UniProt P78316)	0.931 ± 0.035	0.912 ± 0.03	0.893 ± 0.015	0.923 ± 0.036	0.871 ± 0.017	0.898 ± 0.037
UniProt P61024 and related entries	0.952 ± 0.087	0.94 ± 0.084	0.931 ± 0.082	0.966 ± 0.097	0.914 ± 0.06	0.946 ± 0.11
UniProt P62829	0.957 ± 0.055	0.898 ± 0.099	0.866 ± 0.11	0.812 ± 0.08	0.741 ± 0.11	0.834 ± 0.068
EIF5 (UniProt P55010)	1 ± 0.057	0.99 ± 0.028	0.962 ± 0.025	1.03 ± 0.035	0.964 ± 0.015	0.963 ± 0.032
PAFAH1B2 (UniProt P68402)	0.829 ± 0.061	0.868 ± 0.059	0.831 ± 0.015	0.821 ± 0.069	0.833 ± 0.022	0.824 ± 0.025
UniProt P61163	1.04 ± 0.038	0.999 ± 0.03	0.996 ± 0.022	0.959 ± 0.046	1.03 ± 0.046	0.97 ± 0.033

Target	NP40-soluble protein abundance (concentration: 1mM)	NP40-soluble protein abundance (concentration: 2mM)	NP40-soluble protein abundance (concentration: 4mM)	NP40-soluble protein abundance (concentration: 6mM)	NP40-soluble protein abundance (concentration: 8mM)	NP40-soluble protein abundance (concentration: 10mM)
CRADD (UniProt P78560)	1.01 ± 0.11	1 ± 0.011	0.99 ± 0.052	0.902 ± 0.12	0.963 ± 0.12	0.877 ± 0.069
RPL38 (UniProt P63173)	0.875 ± 0.063	0.916 ± 0.055	0.883 ± 0.052	0.847 ± 0.09	0.766 ± 0.036	0.905 ± 0.099
SRP54 (UniProt P61011)	0.974 ± 0.031	0.986 ± 0.027	0.977 ± 0.042	1.02 ± 0.012	1.02 ± 0.047	1.03 ± 0.034
UniProt P62269	0.854 ± 0.076	0.832 ± 0.097	0.784 ± 0.093	0.726 ± 0.092	0.658 ± 0.12	0.727 ± 0.084
UniProt P98194-5|P98194-6|P98194-7|P98194-8|P98194-9|B4E2Q0 and related entries	1.05 ± 0.1	1.06 ± 0.058	1.05 ± 0.07	0.984 ± 0.13	1.04 ± 0.051	1.02 ± 0.045
UniProt P57088 and related entries	0.851 ± 0.1	0.96 ± 0.13	0.924 ± 0.069	0.784 ± 0.069	0.914 ± 0.093	1 ± 0.12
SLC5A3 (UniProt P53794)	0.992 ± 0.11	0.946 ± 0.081	1.09 ± 0.22	1.01 ± 0.048	0.952 ± 0.073	1.04 ± 0.042
UniProt P80217 and related entries	0.974 ± 0.067	0.974 ± 0.048	0.979 ± 0.06	0.981 ± 0.041	0.9413 ± 0.0029	0.962 ± 0.024
ACTR3 (UniProt P61158)	0.952 ± 0.17	1.14 ± 0.24	1.02 ± 0.1	0.948 ± 0.021	1.09 ± 0.11	1 ± 0.037
MRPS35 (UniProt P82673)	0.976 ± 0.029	0.911 ± 0.072	0.86 ± 0.075	0.895 ± 0.23	0.894 ± 0.14	0.824 ± 0.11
UniProt P63010 and related entries	1.03 ± 0.058	1.05 ± 0.036	1.02 ± 0.025	1.06 ± 0.049	1.04 ± 0.039	1.07 ± 0.023
ADK (UniProt P55263)	0.976 ± 0.043	0.988 ± 0.032	0.931 ± 0.024	0.937 ± 0.076	0.934 ± 0.011	0.964 ± 0.02
UniProt P61026	0.935 ± 0.044	0.914 ± 0.036	0.901 ± 0.033	0.893 ± 0.069	0.8817 ± 0.0051	0.903 ± 0.015
HIRA (UniProt P54198)	1.06 ± 0.053	1.04 ± 0.06	1 ± 0.085	1.07 ± 0.15	1.06 ± 0.057	1.2 ± 0.098
UniProt P62191	0.9649 ± 0.0081	0.88 ± 0.045	0.858 ± 0.02	0.891 ± 0.095	0.9 ± 0.048	0.873 ± 0.047
AP1S2 (UniProt P56377)	0.936 ± 0.082	0.953 ± 0.052	1.02 ± 0.056	1 ± 0.16	0.968 ± 0.055	0.975 ± 0.061
UBXN2A (UniProt P68543)	0.949 ± 0.069	0.938 ± 0.052	0.955 ± 0.019	0.921 ± 0.17	0.867 ± 0.021	0.948 ± 0.047
RAB8A (UniProt P61006)	0.962 ± 0.043	0.951 ± 0.042	0.884 ± 0.043	0.945 ± 0.081	0.89 ± 0.044	0.905 ± 0.035
UniProt P78330 and related entries	0.906 ± 0.03	0.921 ± 0.035	0.895 ± 0.015	0.9 ± 0.08	0.891 ± 0.056	0.882 ± 0.048
PPP5C (UniProt P53041)	0.993 ± 0.059	0.978 ± 0.041	0.967 ± 0.043	0.953 ± 0.075	0.982 ± 0.057	0.968 ± 0.047

Exported in CSV form: part of the list above.
Target,NP40-soluble protein abundance (concentration: 1mM),NP40-soluble protein abundance (concentration: 2mM),NP40-soluble protein abundance (concentration: 4mM),NP40-soluble protein abundance (concentration: 6mM),NP40-soluble protein abundance (concentration: 8mM),NP40-soluble protein abundance (concentration: 10mM)
UniProt P54277 and related entries,1.25 ± 0.027,1.27 ± 0.075,1.35 ± 0.058,1.32 ± 0.08,1.31 ± 0.049,1.28 ± 0.05
UniProt P57076,0.965 ± 0.036,0.977 ± 0.039,0.919 ± 0.05,0.95 ± 0.041,0.946 ± 0.051,0.913 ± 0.047
UniProt P61981,1.09 ± 0.32,0.8 ± 0.18,1.03 ± 0.2,0.797 ± 0.2,0.937 ± 0.058,0.721 ± 0.17
UniProt P83876,1.13 ± 0.1,1.15 ± 0.071,1.15 ± 0.091,1.15 ± 0.072,1.22 ± 0.12,1.22 ± 0.058
UniProt P61088,0.983 ± 0.041,0.968 ± 0.031,0.956 ± 0.022,0.918 ± 0.07,0.956 ± 0.027,0.9 ± 0.068
NOP14 (UniProt P78316),0.931 ± 0.035,0.912 ± 0.03,0.893 ± 0.015,0.923 ± 0.036,0.871 ± 0.017,0.898 ± 0.037
UniProt P61024 and related entries,0.952 ± 0.087,0.94 ± 0.084,0.931 ± 0.082,0.966 ± 0.097,0.914 ± 0.06,0.946 ± 0.11
UniProt P62829,0.957 ± 0.055,0.898 ± 0.099,0.866 ± 0.11,0.812 ± 0.08,0.741 ± 0.11,0.834 ± 0.068
EIF5 (UniProt P55010),1 ± 0.057,0.99 ± 0.028,0.962 ± 0.025,1.03 ± 0.035,0.964 ± 0.015,0.963 ± 0.032
PAFAH1B2 (UniProt P68402),0.829 ± 0.061,0.868 ± 0.059,0.831 ± 0.015,0.821 ± 0.069,0.833 ± 0.022,0.824 ± 0.025
UniProt P61163,1.04 ± 0.038,0.999 ± 0.03,0.996 ± 0.022,0.959 ± 0.046,1.03 ± 0.046,0.97 ± 0.033
CRADD (UniProt P78560),1.01 ± 0.11,1 ± 0.011,0.99 ± 0.052,0.902 ± 0.12,0.963 ± 0.12,0.877 ± 0.069
RPL38 (UniProt P63173),0.875 ± 0.063,0.916 ± 0.055,0.883 ± 0.052,0.847 ± 0.09,0.766 ± 0.036,0.905 ± 0.099
SRP54 (UniProt P61011),0.974 ± 0.031,0.986 ± 0.027,0.977 ± 0.042,1.02 ± 0.012,1.02 ± 0.047,1.03 ± 0.034

(continued)

Target	NP40-soluble protein abundance (concentration: 1mM)	NP40-soluble protein abundance (concentration: 2mM)	NP40-soluble protein abundance (concentration: 4mM)	NP40-soluble protein abundance (concentration: 6mM)	NP40-soluble protein abundance (concentration: 8mM)	NP40-soluble protein abundance (concentration: 10mM)
P68032 and related entries (UniProt P68133+P68032)	1.136 ± 0.0035	1.09 ± 0.038	1.07 ± 0.049	1.11 ± 0.058	1.11 ± 0.083	1.09 ± 0.014
UniProt P78346 and related entries	1.03 ± 0.12	0.979 ± 0.073	1.01 ± 0.066	1 ± 0.12	1.04 ± 0.041	1.04 ± 0.026
UniProt P62081	0.974 ± 0.045	0.94 ± 0.082	0.944 ± 0.088	0.911 ± 0.078	0.888 ± 0.067	0.943 ± 0.061
UniProt P55060 and related entries	0.916 ± 0.046	0.942 ± 0.066	0.916 ± 0.041	0.872 ± 0.057	0.885 ± 0.035	0.912 ± 0.037
RPL10A (UniProt P62906)	1.07 ± 0.034	1.05 ± 0.038	1.03 ± 0.028	0.978 ± 0.022	0.903 ± 0.064	0.915 ± 0.032
XIAP (UniProt P98170)	0.996 ± 0.018	1.02 ± 0.035	1.03 ± 0.045	1 ± 0.033	1.02 ± 0.019	1.02 ± 0.037
UniProt P68036	0.952 ± 0.15	0.883 ± 0.044	0.856 ± 0.14	0.913 ± 0.037	0.935 ± 0.067	0.777 ± 0.11
HDAC4 (UniProt P56524)	0.975 ± 0.019	0.979 ± 0.086	0.974 ± 0.015	0.975 ± 0.029	0.921 ± 0.065	0.935 ± 0.044
MRPS15 (UniProt P82914)	0.947 ± 0.083	0.894 ± 0.096	0.884 ± 0.11	0.91 ± 0.24	0.897 ± 0.16	0.842 ± 0.11
UniProt P62140	1 ± 0.034	0.989 ± 0.011	1.01 ± 0.065	1 ± 0.051	1.04 ± 0.043	1.06 ± 0.03
UniProt P62256 and related entries	0.934 ± 0.062	0.96 ± 0.033	0.933 ± 0.05	0.94 ± 0.041	0.889 ± 0.074	0.884 ± 0.032
MRPS6 (UniProt P82932)	0.931 ± 0.12	0.873 ± 0.092	0.81 ± 0.088	0.838 ± 0.22	0.856 ± 0.13	0.769 ± 0.13
UniProt P56559 and related entries	1.23 ± 0.067	1.24 ± 0.019	1.22 ± 0.031	1.21 ± 0.076	1.29 ± 0.12	1.22 ± 0.0015
UniProt P60763	0.975 ± 0.042	0.966 ± 0.039	1.02 ± 0.094	0.981 ± 0.056	0.985 ± 0.11	0.966 ± 0.033
HCCS (UniProt P53701)	1.02 ± 0.046	0.966 ± 0.041	0.947 ± 0.023	0.952 ± 0.053	0.957 ± 0.015	0.931 ± 0.041
MAT1A (UniProt Q00266)	1.01 ± 0.14	0.986 ± 0.11	1.02 ± 0.11	0.971 ± 0.14	1.01 ± 0.099	0.977 ± 0.1
MRPS34 (UniProt P82930)	0.995 ± 0.064	0.952 ± 0.092	0.973 ± 0.1	0.93 ± 0.18	0.94 ± 0.14	0.877 ± 0.1
UniProt P61020	0.972 ± 0.064	0.997 ± 0.056	0.964 ± 0.046	0.969 ± 0.13	0.937 ± 0.01	0.972 ± 0.072
UniProt P61964	0.966 ± 0.049	0.972 ± 0.02	0.986 ± 0.033	0.929 ± 0.036	0.993 ± 0.033	1.03 ± 0.017
UniProt P63244	0.942 ± 0.049	0.861 ± 0.031	0.812 ± 0.023	0.778 ± 0.044	0.75 ± 0.028	0.78 ± 0.047
